# Results as given in patent US7279290B2, “ATM kinase compositions and methods” (St. Jude Children's Research Hospital, priority 2002, dated 2007).
# By UniProt entry, the sequences of proteins in these tests, tags left out. Where a name states a change or a piece, a line headed by the entry shows the natural chain unless it says otherwise.
# UniProt Q13535: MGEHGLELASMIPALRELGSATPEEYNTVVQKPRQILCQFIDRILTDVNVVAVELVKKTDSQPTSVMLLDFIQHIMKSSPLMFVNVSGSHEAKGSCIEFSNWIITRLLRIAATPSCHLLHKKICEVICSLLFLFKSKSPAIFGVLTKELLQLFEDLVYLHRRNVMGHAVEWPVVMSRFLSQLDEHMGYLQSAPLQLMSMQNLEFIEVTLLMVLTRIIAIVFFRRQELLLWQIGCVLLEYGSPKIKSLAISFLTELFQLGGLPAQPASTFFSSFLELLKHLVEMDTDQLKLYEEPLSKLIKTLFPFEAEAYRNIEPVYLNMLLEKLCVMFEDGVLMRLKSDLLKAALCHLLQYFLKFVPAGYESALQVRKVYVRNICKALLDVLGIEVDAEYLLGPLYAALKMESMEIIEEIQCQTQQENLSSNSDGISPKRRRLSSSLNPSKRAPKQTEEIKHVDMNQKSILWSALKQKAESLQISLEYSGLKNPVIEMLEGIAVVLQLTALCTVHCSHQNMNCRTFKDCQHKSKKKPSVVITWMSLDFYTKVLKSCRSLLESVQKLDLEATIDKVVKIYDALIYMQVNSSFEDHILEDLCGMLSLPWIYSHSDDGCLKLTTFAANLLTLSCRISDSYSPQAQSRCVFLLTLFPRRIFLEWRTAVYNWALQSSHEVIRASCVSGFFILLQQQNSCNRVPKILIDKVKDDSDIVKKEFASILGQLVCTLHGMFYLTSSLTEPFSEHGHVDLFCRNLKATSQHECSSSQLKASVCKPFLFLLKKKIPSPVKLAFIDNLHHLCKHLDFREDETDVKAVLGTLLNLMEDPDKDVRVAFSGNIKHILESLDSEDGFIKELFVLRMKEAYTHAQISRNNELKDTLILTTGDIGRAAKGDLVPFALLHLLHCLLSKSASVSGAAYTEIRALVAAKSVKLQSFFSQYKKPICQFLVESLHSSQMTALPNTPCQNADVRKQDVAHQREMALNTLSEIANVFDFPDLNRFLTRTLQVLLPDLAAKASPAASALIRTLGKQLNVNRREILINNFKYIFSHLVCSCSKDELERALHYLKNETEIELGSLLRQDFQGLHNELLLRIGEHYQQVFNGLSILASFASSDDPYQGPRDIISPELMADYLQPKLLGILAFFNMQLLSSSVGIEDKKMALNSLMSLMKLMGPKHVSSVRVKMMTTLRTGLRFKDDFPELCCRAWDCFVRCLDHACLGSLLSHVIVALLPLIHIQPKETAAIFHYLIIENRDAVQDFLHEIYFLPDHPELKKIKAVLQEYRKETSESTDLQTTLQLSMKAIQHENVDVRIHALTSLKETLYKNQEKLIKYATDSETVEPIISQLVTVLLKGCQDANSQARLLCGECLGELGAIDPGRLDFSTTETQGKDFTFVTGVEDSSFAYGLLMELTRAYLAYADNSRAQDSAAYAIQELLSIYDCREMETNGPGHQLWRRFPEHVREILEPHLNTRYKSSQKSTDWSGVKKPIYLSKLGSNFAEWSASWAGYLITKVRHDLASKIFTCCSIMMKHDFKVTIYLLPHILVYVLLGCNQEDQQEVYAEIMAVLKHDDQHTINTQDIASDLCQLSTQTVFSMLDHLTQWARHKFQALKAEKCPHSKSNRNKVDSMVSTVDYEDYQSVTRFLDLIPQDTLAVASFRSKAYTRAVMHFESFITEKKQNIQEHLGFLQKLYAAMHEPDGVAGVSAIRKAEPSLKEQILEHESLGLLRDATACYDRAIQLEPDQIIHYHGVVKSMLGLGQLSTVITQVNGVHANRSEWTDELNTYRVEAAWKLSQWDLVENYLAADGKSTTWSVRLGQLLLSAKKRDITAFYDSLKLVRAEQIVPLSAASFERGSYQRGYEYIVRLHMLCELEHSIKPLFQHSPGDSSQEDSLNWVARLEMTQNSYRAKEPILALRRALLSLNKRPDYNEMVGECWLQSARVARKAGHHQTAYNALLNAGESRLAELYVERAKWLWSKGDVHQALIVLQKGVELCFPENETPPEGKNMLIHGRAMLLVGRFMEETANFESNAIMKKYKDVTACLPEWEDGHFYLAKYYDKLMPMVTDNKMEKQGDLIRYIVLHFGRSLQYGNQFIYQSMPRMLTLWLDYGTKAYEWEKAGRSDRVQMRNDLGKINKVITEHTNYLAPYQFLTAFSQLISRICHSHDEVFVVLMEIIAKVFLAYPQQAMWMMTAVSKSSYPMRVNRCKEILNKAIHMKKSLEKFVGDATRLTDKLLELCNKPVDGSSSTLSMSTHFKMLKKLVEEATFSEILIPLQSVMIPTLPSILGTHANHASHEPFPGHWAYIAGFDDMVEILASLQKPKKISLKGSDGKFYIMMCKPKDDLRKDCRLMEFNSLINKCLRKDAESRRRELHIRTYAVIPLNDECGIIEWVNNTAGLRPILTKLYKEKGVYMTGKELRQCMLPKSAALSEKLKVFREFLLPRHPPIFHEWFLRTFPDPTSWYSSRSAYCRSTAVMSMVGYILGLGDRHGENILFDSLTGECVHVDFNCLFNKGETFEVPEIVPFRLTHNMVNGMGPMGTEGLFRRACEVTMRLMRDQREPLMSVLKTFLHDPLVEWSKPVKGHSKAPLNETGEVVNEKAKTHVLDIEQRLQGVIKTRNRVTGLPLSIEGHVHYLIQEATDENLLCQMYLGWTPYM
# At least one structure is not confirmed: it was looked up by name or label, or the drawing left a doubt.
# How the values were obtained:
# [1] = molecular target: T1, ATM (Homo sapiens, UniProt Q13315, K750N/N3003D/T554A); parameters: FLAG; expressed in transfected cells; host or cells: 293T cells (named for the transfections; not repeated for the in vitro assay); settings: wortmannin 20 μM or more; cited from earlier work
# [2] = molecular target: DNA-dependent protein kinase (DNA-PK) (Homo sapiens, UniProt P78527); settings: wortmannin 20 μM or more; cited from earlier work
# [3] = molecular target: T2, ATM^1923-3056 (Homo sapiens, UniProt Q13315, N3003D); experiment: Kinase activity of purified recombinant ATM^1923-3056 fragment on p53 target peptide; format: biochemical
# T2 construct: A galactose-inducible pYES plasmid containing 6x-His-FLAG®-tagged ATM^1923-3056 was transfected into Saccharomyces cerevisiae; 6x-His (N); FLAG (N); made in house; host or cells: Saccharomyces cerevisiae JEL1
# T2 sequence (Q13315 1923-3056 N3003D): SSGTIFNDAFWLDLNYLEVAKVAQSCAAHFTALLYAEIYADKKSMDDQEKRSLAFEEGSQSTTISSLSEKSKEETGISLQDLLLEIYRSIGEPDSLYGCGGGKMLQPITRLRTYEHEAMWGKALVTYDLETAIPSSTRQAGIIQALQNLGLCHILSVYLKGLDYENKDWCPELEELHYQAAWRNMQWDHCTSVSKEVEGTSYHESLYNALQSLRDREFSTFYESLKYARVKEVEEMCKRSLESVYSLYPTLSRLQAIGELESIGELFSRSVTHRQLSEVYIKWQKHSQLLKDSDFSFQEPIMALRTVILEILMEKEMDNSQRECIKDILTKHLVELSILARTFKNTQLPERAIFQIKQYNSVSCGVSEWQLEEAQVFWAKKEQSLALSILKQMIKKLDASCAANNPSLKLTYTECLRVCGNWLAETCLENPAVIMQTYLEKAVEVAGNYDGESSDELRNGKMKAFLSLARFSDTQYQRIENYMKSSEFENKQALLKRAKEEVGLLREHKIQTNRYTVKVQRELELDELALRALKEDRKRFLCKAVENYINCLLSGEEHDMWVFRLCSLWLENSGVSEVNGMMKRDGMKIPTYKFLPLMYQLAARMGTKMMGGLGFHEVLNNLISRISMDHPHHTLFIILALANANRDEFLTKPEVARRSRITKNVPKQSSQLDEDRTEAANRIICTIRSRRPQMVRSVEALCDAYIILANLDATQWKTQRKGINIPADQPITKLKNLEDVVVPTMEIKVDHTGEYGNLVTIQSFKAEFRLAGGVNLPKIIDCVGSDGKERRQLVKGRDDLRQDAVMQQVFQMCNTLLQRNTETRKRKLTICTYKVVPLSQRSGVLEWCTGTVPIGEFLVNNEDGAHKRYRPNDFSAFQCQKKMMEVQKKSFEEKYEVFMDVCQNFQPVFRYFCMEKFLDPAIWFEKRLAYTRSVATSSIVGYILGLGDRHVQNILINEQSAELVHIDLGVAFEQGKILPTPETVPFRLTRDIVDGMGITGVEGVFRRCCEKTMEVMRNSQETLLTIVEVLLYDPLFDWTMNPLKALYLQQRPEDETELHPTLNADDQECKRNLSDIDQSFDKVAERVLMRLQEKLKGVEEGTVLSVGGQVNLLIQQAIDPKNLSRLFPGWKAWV
# [4] = molecular target: T1, ATM; settings: 30 nM wortmannin; cited from earlier work
# [5] = molecular target: ataxia- and Rad3-related protein (ATR) (Homo sapiens, UniProt Q13535); settings: wortmannin 20 μM or more; cited from earlier work
# [6] = molecular target: T1, ATM; experiment: In vitro ATM kinase assay (phosphorylation of ATM); format: biochemical; parameters: FLAG; expressed in transfected cells; host or cells: 293T cells (named for the transfections; not repeated for the in vitro assay); settings: 30 mM wortmannin
compound,measurement,setting,value
COC[C@H]1OC(=O)c2coc3c2[C@@]1(C)C1=C(C3=O)[C@@H]2CCC(=O)[C@@]2(C)C[C@H]1OC(C)=O [wortmannin],inhibition of ATM in vivo,[1],inhibits
same,inhibition of DNA-PK in vivo,[2],inhibits
same,phosphorylation of a p53 target peptide by ATM fragment,[3],wortmannin-sensitive
same,ATM kinase activity,[4],effectively inhibits
same,inhibition of ATR in vivo,[5],not
same,In vitro phosphorylation of ATM,[6],inhibited
